# The other results are listed elsewhere or left out.
# Target: T1, OsSMF1 (Oryza sativa, UniProt Q6ZLB0 1-436)
# T1 sequence: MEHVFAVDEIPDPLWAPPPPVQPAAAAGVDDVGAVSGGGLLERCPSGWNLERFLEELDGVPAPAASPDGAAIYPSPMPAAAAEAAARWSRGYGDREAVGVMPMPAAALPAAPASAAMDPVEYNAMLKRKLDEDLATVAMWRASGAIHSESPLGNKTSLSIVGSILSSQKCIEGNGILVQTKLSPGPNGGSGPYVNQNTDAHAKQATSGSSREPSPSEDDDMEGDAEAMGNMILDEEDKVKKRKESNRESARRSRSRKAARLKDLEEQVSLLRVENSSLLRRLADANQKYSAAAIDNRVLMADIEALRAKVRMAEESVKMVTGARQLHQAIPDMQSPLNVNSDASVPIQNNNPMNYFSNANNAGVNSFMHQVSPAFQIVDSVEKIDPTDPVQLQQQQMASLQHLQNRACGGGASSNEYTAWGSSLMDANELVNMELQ
# Assay: protein-binding microarray (RPBM); PBS, 2% BSA, 51.3 ng/ul salmon testes DNA, 50 uM zinc acetate, 200 nM TF, 25 C, 1 h; high values mean tight binding
# Conditions: protein: recombinant; tags: N-terminal polyhistidine and DsRed monomer fusion (pET32a); chain copies: 2; label: CyDye5-dUTP incorporated in the synthesized complementary strand; 3' TTTTT single-stranded linker to array surface; dsDNA, one strand shown
# Outline: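 The binding signal for each feature is its fluorescence intensity in arbitrary units. An Axon 4000B scanner was used to read a custom Agilent array that had been made double-stranded with Cy5-dUTP primer extension, blocked with 2% BSA, incubated at 25 °C for 1 h with 200 nM protein in PBS, 2% BSA, salmon testes DNA and 50 µM zinc acetate, and washed. The protein was an N-terminal polyhistidine–DsRed transcription factor fusion from E. coli BL21-CodonPlus, purified on Ni–NTA.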
row,Sequence,binding signal
1,TTTATTATGACTTGATTCGTCATCAAATGTTCTTTAAGCACGGAGTCACCTAGTGCAG,5230 fluorescence intensity (a.u.)
2,CCAGCAATCCTTGGTGACGTTGTGGCCGGCCACCTCCTCGCGGAGTCACCTAGTGCAG,6280 fluorescence intensity (a.u.)
3,TCTGGAACAAACTGTTGCCACTTGCAGGCCTGCACGTCATCGGAGTCACCTAGTGCAG,7960 fluorescence intensity (a.u.)
4,CCATGCACGCACGCCGCGACGCCACACGTGAAAGCTCCCACGGAGTCACCTAGTGCAG,28000 fluorescence intensity (a.u.)
5,CGTTGTTTGTTACTAATGAGTCAAGTTGGAGATAGCTTGGCGGAGTCACCTAGTGCAG,24500 fluorescence intensity (a.u.)
6,GACTCGAGTCGAGAGAGACTCGTCGTCATTAGCCATCACTCGGAGTCACCTAGTGCAG,3540 fluorescence intensity (a.u.)
7,CCATTTTGTTCCACCGCGTCGGCGGAAAGAGTGCACTGCCCGGAGTCACCTAGTGCAG,3500 fluorescence intensity (a.u.)
8,TCAAGGACCTCGTCATCCTCTCAGGTAACACACTTTCCCTCGGAGTCACCTAGTGCAG,3780 fluorescence intensity (a.u.)
9,GTTTCGAACGAAGCCCGATTGTAGATGACGTATCGACGCCCGGAGTCACCTAGTGCAG,6810 fluorescence intensity (a.u.)
10,TTCATAAGCTGCTTACGTGTTATTTGCACAGTTTAAATTTCGGAGTCACCTAGTGCAG,15800 fluorescence intensity (a.u.)
11,TACTCCCTCCTTCCCTAAATGTTTGACACCGTGGACTTTTCGGAGTCACCTAGTGCAG,3600 fluorescence intensity (a.u.)
12,GCCTCCATCCCCTTCTTCCGTGTCGTTGCCACCGCATCGCCGGAGTCACCTAGTGCAG,6220 fluorescence intensity (a.u.)
13,GCTTGAATTCCTGGTCGGTCACCCATCACTTGTCCTCACTCGGAGTCACCTAGTGCAG,16400 fluorescence intensity (a.u.)
14,ACAAATTTTAAAGGCGACAGGAGAATAAATCCCCAAAGCGCGGAGTCACCTAGTGCAG,28900 fluorescence intensity (a.u.)
15,GTTTGCAAGTTTGCTCTGTCAACGTCCACCAATACGGCAACGGAGTCACCTAGTGCAG,3890 fluorescence intensity (a.u.)
16,GTGAGATTAGACATTGCCACGTGGCTGGCGGTCTCGCAGCCGGAGTCACCTAGTGCAG,22200 fluorescence intensity (a.u.)
17,TTGCAGTCCACCAATATTGGAGCGACGTAGGTTGAGTCCACGGAGTCACCTAGTGCAG,4030 fluorescence intensity (a.u.)
18,ATGGCCACGTCAGCTCCATTCCCGTCGCGTCACTGCCTCTCGGAGTCACCTAGTGCAG,18700 fluorescence intensity (a.u.)
19,TCGCGGTGGTGGTGAAGCTGGTGTGGAGGCCCCGCGCCATCGGAGTCACCTAGTGCAG,3270 fluorescence intensity (a.u.)
20,AAAGTTACAGCGTAAGTTTTATAAATTACACTGTAACTTACGGAGTCACCTAGTGCAG,8930 fluorescence intensity (a.u.)
21,CGTGCAGTGGCCGGCGCGCAGCCGACGTCTCCATCAGTGCCGGAGTCACCTAGTGCAG,4020 fluorescence intensity (a.u.)
22,CTGCACTGCGTTACATGCGGCGTGACACGCTCAGCCAAACCGGAGTCACCTAGTGCAG,4640 fluorescence intensity (a.u.)
23,GGAGAAGGGTAGAACAGGATATACAGTTATACACCCGCTACGGAGTCACCTAGTGCAG,4120 fluorescence intensity (a.u.)
24,TACCATTGGCCTGCTCCTGTCCTGAGTCAGCACTAGAGAGCGGAGTCACCTAGTGCAG,16100 fluorescence intensity (a.u.)
25,AGGCCGGAGTGAGGGAGCAAAGGCTGACGAAACGCACATCCGGAGTCACCTAGTGCAG,3260 fluorescence intensity (a.u.)
26,GCCGCCGCGGGGCACCCCTACGCGTGGCCCGCGCAGGTAGCGGAGTCACCTAGTGCAG,3180 fluorescence intensity (a.u.)
27,ACAAGATTTTCTTCAGTCTGAAACACTACAAAATGGGTCACGGAGTCACCTAGTGCAG,5990 fluorescence intensity (a.u.)

row,Sequence,binding signal
1,ACCGAACAGCTCAGTGCCCGCCCCGCCCTGGACCTTGACGCGGAGTCACCTAGTGCAG,3320 fluorescence intensity (a.u.)
2,ACCGAGGATGAGAAGAGGGGAGAGAGAAGGATGACGTGGCCGGAGTCACCTAGTGCAG,22100 fluorescence intensity (a.u.)
3,TCATACTTTCTTAATAGCCGTGTCAACTCTAAATCTTCTTCGGAGTCACCTAGTGCAG,3320 fluorescence intensity (a.u.)
4,ACAAGTGAATCCGATCTCACATGCCAGCAGTAGCTACTACCGGAGTCACCTAGTGCAG,13700 fluorescence intensity (a.u.)
5,GAGGCCACGTCTGGGGCAGGCGGGCCTTGCCGGAACCGGGCGGAGTCACCTAGTGCAG,4620 fluorescence intensity (a.u.)
6,GGCTGTTGAACAATACACATGACCCTCCTCCCTTACTAATCGGAGTCACCTAGTGCAG,30200 fluorescence intensity (a.u.)
7,GCGCGGCGATGACACGTGTCGCATGACTCACCAGCGGTGTCGGAGTCACCTAGTGCAG,24000 fluorescence intensity (a.u.)
8,GAAGCCATGGCGGCGAGATCGCCTCACGTGTCGCCACCGCCGGAGTCACCTAGTGCAG,6500 fluorescence intensity (a.u.)
9,CTCCTCCGTCATCTCCATGTACTGGTGCGCGTCCGCGATCCGGAGTCACCTAGTGCAG,4410 fluorescence intensity (a.u.)
10,TACAACTACGGCCCTCCGCAGCCACAGGCGCCGCCGCCGCCGGAGTCACCTAGTGCAG,3340 fluorescence intensity (a.u.)
11,ACTGACAAGCAGTGAATTTTACCCCGTAACTTACGCATATCGGAGTCACCTAGTGCAG,3150 fluorescence intensity (a.u.)
12,ATTGACCACTTTATTGTATGTCGTCAACAGAAGAAGTGCTCGGAGTCACCTAGTGCAG,3510 fluorescence intensity (a.u.)
13,ACTGCCGGTTCAACTGCTCCACGGCTCCACTCCACGCATCCGGAGTCACCTAGTGCAG,43300 fluorescence intensity (a.u.)
14,CCGCAGCCACGCAAGCATGCAAACCAGCACAACACAACACCGGAGTCACCTAGTGCAG,4870 fluorescence intensity (a.u.)
15,AGAGAACGGTGAACCGGGAAAAGCCCTGTGAATTTTCAAACGGAGTCACCTAGTGCAG,19700 fluorescence intensity (a.u.)
16,CAAAGATGGAGAATCGTTGCCTCGATCCCTTCGAACACCCCGGAGTCACCTAGTGCAG,37400 fluorescence intensity (a.u.)
17,GCCCGCCAATGCGGTCCCGACACGTGTCCCCTCCCCGCTCCGGAGTCACCTAGTGCAG,21600 fluorescence intensity (a.u.)
18,TTAAGATTAAGATTAAGATAGATAATAATACGACATGTTCCGGAGTCACCTAGTGCAG,22100 fluorescence intensity (a.u.)
19,CCCCTGATCGGACGGTCCGGGTTCTTCCAGTGACGTGGATCGGAGTCACCTAGTGCAG,15000 fluorescence intensity (a.u.)
20,AATCACCAACCTTGTCATCTATGTAGGCGGTCCAAAACCGCGGAGTCACCTAGTGCAG,4100 fluorescence intensity (a.u.)
21,TTTTATGACAATTAGTATAAGATGGGGTGGCTTAGTGACGCGGAGTCACCTAGTGCAG,3340 fluorescence intensity (a.u.)
22,CTGTACTGGAATGTGAAATACGTCATGACTCATGAAGTTGCGGAGTCACCTAGTGCAG,8950 fluorescence intensity (a.u.)
23,TGGTGCAGGGGACAAAGAAGCTGACACACCAGGTTGATAACGGAGTCACCTAGTGCAG,5170 fluorescence intensity (a.u.)
24,CCTTCTATCTATCGATCCAATCCAACGCTGCAGAGACCCTCGGAGTCACCTAGTGCAG,3170 fluorescence intensity (a.u.)
25,CCTCCCTCACGTTGGATCCCGTGGAGTTGAGATGATTCGTCGGAGTCACCTAGTGCAG,3390 fluorescence intensity (a.u.)
26,AATGGGATATGGGAGGTGGGATTGGGAAAGGGGAATAGATCGGAGTCACCTAGTGCAG,3330 fluorescence intensity (a.u.)
27,GAGTGGGAATTCTGATCAAAACCTGGTGACACGTTTGGCTCGGAGTCACCTAGTGCAG,6280 fluorescence intensity (a.u.)

# Quoted at random: 2 entries already listed
row,Sequence,binding signal
18,TTAAGATTAAGATTAAGATAGATAATAATACGACATGTTCCGGAGTCACCTAGTGCAG,22100 fluorescence intensity (a.u.)
15,AGAGAACGGTGAACCGGGAAAAGCCCTGTGAATTTTCAAACGGAGTCACCTAGTGCAG,19700 fluorescence intensity (a.u.)

# At a glance, some entries already given:
row,Sequence,binding signal
4,ACAAGTGAATCCGATCTCACATGCCAGCAGTAGCTACTACCGGAGTCACCTAGTGCAG,13700 fluorescence intensity (a.u.)
5,GAGGCCACGTCTGGGGCAGGCGGGCCTTGCCGGAACCGGGCGGAGTCACCTAGTGCAG,4620 fluorescence intensity (a.u.)

# From PMC7819943, “Rice protein-binding microarrays: a tool to detect cis-acting elements near promoter regions in rice”
